According to patent US20220195021A1 (ANWITA BIOSCIENCES, published 2022):
No constants are given. Whether binding was seen depends on the method and setting. Some binding calls cover weakened binding; strength is not graded here. Sequences can lack the tags named with a protein.

The chains behind the UniProt entries cited, without tags or fusion partners. Residues count along the entry.
UniProt A2V9Z4, residues 25-608: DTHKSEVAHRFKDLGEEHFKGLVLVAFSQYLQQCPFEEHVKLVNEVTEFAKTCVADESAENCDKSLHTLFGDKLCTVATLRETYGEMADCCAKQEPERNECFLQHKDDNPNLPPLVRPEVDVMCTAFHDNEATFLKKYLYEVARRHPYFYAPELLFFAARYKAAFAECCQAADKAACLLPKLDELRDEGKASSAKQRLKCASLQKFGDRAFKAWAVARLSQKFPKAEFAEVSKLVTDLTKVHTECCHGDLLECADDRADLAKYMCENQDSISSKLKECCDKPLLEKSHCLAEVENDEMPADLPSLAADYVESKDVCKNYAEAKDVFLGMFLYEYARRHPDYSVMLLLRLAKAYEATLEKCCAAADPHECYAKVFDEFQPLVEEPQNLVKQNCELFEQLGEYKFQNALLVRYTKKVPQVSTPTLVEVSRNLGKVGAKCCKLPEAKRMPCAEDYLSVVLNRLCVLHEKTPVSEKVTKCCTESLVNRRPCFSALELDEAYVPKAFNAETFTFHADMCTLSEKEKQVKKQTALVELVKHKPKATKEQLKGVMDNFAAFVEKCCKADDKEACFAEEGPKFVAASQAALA
UniProt P02768, residues 25-609: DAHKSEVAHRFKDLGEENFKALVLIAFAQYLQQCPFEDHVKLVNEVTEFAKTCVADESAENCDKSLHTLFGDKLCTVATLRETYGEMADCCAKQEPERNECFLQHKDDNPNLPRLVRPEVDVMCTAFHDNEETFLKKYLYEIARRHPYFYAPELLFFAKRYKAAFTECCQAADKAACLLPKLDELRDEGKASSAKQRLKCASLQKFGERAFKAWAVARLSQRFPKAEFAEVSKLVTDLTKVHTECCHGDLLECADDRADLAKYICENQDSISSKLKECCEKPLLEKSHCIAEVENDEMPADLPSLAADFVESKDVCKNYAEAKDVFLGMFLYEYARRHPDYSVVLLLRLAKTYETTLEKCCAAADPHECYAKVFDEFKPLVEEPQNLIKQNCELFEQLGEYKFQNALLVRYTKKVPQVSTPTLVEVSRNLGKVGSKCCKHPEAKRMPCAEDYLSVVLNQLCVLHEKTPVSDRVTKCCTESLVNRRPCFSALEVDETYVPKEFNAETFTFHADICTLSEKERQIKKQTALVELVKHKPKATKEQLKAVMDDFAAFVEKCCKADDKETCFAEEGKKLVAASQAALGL
UniProt P07724, residues 25-608: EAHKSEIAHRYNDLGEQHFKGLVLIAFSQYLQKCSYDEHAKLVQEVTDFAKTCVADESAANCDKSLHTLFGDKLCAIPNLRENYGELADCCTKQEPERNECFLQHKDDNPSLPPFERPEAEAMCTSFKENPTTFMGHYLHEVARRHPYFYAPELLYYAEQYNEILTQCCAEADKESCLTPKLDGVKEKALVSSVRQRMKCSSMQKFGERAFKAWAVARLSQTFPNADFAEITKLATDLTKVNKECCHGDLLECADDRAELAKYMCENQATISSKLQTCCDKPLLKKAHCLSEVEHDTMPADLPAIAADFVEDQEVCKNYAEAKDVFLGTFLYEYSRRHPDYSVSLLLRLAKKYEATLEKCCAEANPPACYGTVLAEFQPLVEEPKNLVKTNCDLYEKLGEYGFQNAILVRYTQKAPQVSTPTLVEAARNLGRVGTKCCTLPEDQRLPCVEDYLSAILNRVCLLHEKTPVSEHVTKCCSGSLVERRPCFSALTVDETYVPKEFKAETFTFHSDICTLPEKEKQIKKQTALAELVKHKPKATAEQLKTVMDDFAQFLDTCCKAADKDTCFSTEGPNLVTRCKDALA

Tests used:
[1] = biological target: monkey serum albumin (monkey (cynomolgus monkey in paragraph 472)) (UniProt A2V9Z4); experiment: BLI (OCTET RED96), VHH-IgG1-Fc on protein A biosensor, pH 5.5
[2] = biological target: monkey serum albumin (monkey (cynomolgus monkey in paragraph 472)) (UniProt A2V9Z4); experiment: BLI (OCTET RED96), VHH-IgG1-Fc on protein A biosensor, pH 7.4
human serum albumin = biological target: T1, human serum albumin (human, UniProt P02768 25-609); experiment: as above
T1 construct: The immunogen was rice-expressed HSA (Sigma A9731); also called HSA
Experimental: (§1) The VHH anti-albumin antibodies were evaluated for their ability to interact with human, monkey, and mouse serum albumins at different pH values, e.g., pH 7.4 or pH 5.5 to simulate the pH of an acidified endosome. Briefly, a VHH anti-albumin antibody was fused onto a human IgG1-Fc. The expressed protein was then loaded onto a protein A biosensor (OCTET® RED96). The biosensor was in turn dipped into a solution containing a human, monkey, or mouse serum at three or more different concentrations, e.g., 50, 100, or 200 nM, or 100, 200, or 400 nM. Primary experimental data was analyzed with global fitting to determine a dissociation constant (KD). The results are summarized in Table 7 (pH 5.5) and Table 8 (pH 7.4), wherein A represents a value no greater than 10 nM, B represents a value greater than 10 nM but no greater than 100 nM, and C represents a value greater than 100 nM but no greater than 500 nM.

mouse serum albumin = biological target: T2, mouse serum albumin (mouse, UniProt P07724 25-608); experiment: as above
T2 construct: also called MuSA
Experimental: as §1

B1: anti-HSA VHH antibody A8 fused onto a human IgG1-Fc (Fc fusion)
chain: QVQLVESGGGLVQPGGSLRLSCAASGSTWSINTLAWYRQAPGKQRDLVARISSGGSTHYADSVKGRFTVSRDNAENTLVLQMNSLKPEDTAVYYCYAQSTWYPPSWGQGTQVTVSS
notes: Llama VHH; also called Ab A8; not shown: human IgG1 Fc
B1 was tested, and the binding [1] was “binds”.

B2: humanized anti-HSA VHH antibody A19 fused onto a human IgG1-Fc (Fc fusion)
chain: EVQLVESGGGLVQPGGSLRLSCAASGSTWSINTLAWYRQAPGKQRDLVARISSGGSTYYADSVKGRFTISRDNSKNTLYLQMNSLRAEDTAVYYCYAQSTWYPPSWGQGTLVTVSS
notes: also called Ab A19; anti-HSA A19; not shown: human IgG1 Fc
With B2 the binding [2] was “binds”, the binding (human serum albumin) was “binds” and the binding (mouse serum albumin) was “binds”.

B3: anti-HSA VHH antibody A10 fused onto a human IgG1-Fc (Fc fusion)
chain: QVQLVESGGGLVQAGGSLRLSCLASGGTFSSYAMGWFRQAPGKEREFVAAISWKSSTYYTDSVKGRFTISRDNAKNTVYLQMNSLTPEDTAVYYCAADPTGSYDQPWYDYWGQGTQVTVSS
notes: Llama VHH; also called Ab A10; not shown: human IgG1 Fc
In the case of B3, the binding [1] is reported as “binds”.

B4: humanized anti-HSA VHH antibody A20 fused onto a human IgG1-Fc (Fc fusion)
chain: QVQLVESGGGVVQPGGSLRLSCAASGFAFRGFGMSWVRQAPGKGLEWVSSINNGGSDTYYADSVKGRFTISRDNSKNTLYLQMNSLRAEDTAVYYCAIGGPGASPSGQGTQVTVSS
notes: also called Ab A20; anti-HSA A20; not shown: human IgG1 Fc
B4 was tested, and the binding [1] was “binds”.
